Where a chain is given by its changes, count along the chain named. Results are given in words; binding and its absence hold for the method and conditions named. In cells and extracts the contact can be indirect. Some results given as binding are weak or reduced against the parent protein; the word gives no strength. Tags and fused reporters may be left off the sequences shown.
Legend:
[1] = target: T1, FLAG-tagged mouse Ly6H (mouse) (UniProt Q9WUC3); assay: co-IP; TARO-YFP cells transfected with FLAG-tagged Ly6 proteins; lysis in 50 mM Tris-HCl pH 7.4, 150 mM NaCl, 10% glycerol, 1% Triton X-100, 2% n-octyl-β-D-glucopyranoside; immunoprecipitation with anti-FLAG M2 and Protein G magnetic beads; western blot with anti-GFP
T1 sequence (chain, GPI anchor (removed from the cell surface by PI-PLC)): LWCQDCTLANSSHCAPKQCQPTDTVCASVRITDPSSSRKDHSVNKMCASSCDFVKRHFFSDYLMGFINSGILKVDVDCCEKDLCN

By UniProt entry, the sequences of proteins in these tests, tags left out. Residues count along the entry.
UniProt P36544, residues 23-502: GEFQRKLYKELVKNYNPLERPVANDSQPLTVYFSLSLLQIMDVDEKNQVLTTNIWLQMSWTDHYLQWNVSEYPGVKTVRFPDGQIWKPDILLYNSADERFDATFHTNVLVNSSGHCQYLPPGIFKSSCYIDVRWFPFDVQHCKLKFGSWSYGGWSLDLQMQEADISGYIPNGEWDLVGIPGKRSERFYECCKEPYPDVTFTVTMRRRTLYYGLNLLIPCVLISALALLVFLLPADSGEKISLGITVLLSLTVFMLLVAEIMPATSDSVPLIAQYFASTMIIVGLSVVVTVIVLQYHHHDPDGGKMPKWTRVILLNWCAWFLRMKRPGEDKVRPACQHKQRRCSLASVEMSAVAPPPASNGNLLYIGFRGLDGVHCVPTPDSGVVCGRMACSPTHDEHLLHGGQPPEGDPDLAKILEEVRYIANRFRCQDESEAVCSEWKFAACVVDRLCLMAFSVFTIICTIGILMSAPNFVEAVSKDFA

[2] = target: T2, FLAG-tagged mouse Ly6H R38A mutant (mouse) (UniProt Q9WUC3); assay: as above
T2 sequence: T1 sequence (chain, GPI anchor (removed from the cell surface by PI-PLC)) with R38A

## YFP-tagged α7 nicotinic acetylcholine receptor (human CHRNA7 with YFP fused into the M3-M4 loop) (from UniProt P36544 23-502)
[1]
  binding: binds
[2]
  binding: no binding
